According to publication PMC10163288:
This is one part of the list.

B1: il10ra_site1_normal_mot_HHH_b2_07336_af2_000000224_0001_1_17_H_._HHH_b1_08450_af2_0001_0000600020_0000001_0 (protein)
chain: SSSSDLLHRVAELLRRASRLLFRGNPEEARKLIEEALELAEEAGDEKAKELLEHFLEALENSSSS
B2: il10ra_site1_normal_mot_HHH_b2_02693_af2_000000213_0001_19_35_H_._HHH_b2_00006_af2_0001_0000200009_0000001_0_af2pred_0001 (protein)
chain: SSSSDEEVEERVKELLEEAKRIEDEEEVLQILAEAARLAHELNDEELIHEVLRVAIELLRSSSSS
B3: il10ra_site1_sap_21_mot_HHH_b1_05254_000000006_0001_1_19_H_._HHH_b2_07794_af2_0001_0000600029_0000001_0_0001_af2pred_0001 (protein)
chain: SSSSDEEVEELIEELEELREHVSPEDRRFIELTLRMAKFVLEAGNPEVAKYLLEAALEAINSSSS
B4: il10ra_site1_sap_22_mot_HHH_b2_07569_000000265_0001_38_56_H_._HHH_b2_02901_0001_0000200009_0000001_0_0001 (protein)
chain: SSSSSDVEEEIRELLEEAKRIEDPEEAKEVIMRAAALAARLRDPHLSMEVIEVYAELNQRSSSSS
B5: il10ra_site1_sap_21_mot_HHH_b1_07380_000000129_0001_1_20_H_._HHH_b2_01666_0001_0000100006_0000002_0_0001 (protein)
chain: SSSSSDEEEEEVEELLEEAKRIEDPRELSKVLLKAVQIALESNDPELFEEVWEVAMKLFNSSSSS
B6: il10ra_site1_sap_9_mot_HHH_b1_00456_000000263_0001_1_17_H_._HHH_b2_06560_0001_0000300027_0000001_0_0001 (protein)
chain: SSSSDKEVLLEAARLLTKAFQIEDPEEARKVVEKALELAEEYNDEELARFIQRLLKTLEDSSSSS
B7: il10ra_site1_sap_21_mot_HHH_b2_05984_000000071_0001_38_52_H_._HHH_b1_08773_0001_0000300018_0000001_0_0001_af2pred_0001 (protein)
chain: SSSDETKEEVEKLLREVEELIEQGNEEEAHQLLLEAVLVAAKGNDEEAFRLVMELYLRLENSSSS
B8: il10ra_site1_normal_mot_HHH_b2_00622_af2_000000153_0001_40_57_H_._HHH_b1_08750_0001_0000700033_0000001_0_af2pred_0001 (protein)
chain: SSSSSSEEAKRVLEILIRAAKQIEDPEKAKLALRAAKLSAESAGDEELLEEIRQLLEELNSSSSS
B9: il10ra_site1_normal_mot_e1dd4851c59bc1cdde016f988f6856bd_0001_1_000000200_0001_16_31_H_._HEEHE_0473_0001_0000400018_0000001_0_af2pred_0001 (protein)
chain: DEEREVELALRFLARAAGVKSVEVTTENGEVTVTVENVSPEAKETIEAAVLALRALGLNVSFETR
B10: il10ra_site1_normal_mot_HHH_b1_04704_af2_000000076_0001_43_57_H_._HHH_b2_07817_0001_0000100008_0000001_0_af2pred_0001 (protein)
chain: SSSSSDVREIFERVKELIEEALQIEDPEEREEVLEEARELAEEGNNELLELAVEYVARRESSSSS
B11: il10ra_site1_sap_22_mot_HHH_b1_01307_000000115_0001_1_18_H_._HHH_b2_05711_0001_0000100007_0000001_0_0001 (protein)
chain: SSSSNLERSVKRMLEAIRELLEQGDPEYARLALRFAKAAAEAQNNEELRKEIEELEQEVNSSSSS
B12: il10ra_site1_sap_17_mot_HHH_b1_06789_af2_000000041_0001_1_20_H_._6a059796e6651356ca47b1ab8a1c6dcd_0001_0001_0000800021_0000001_0_0001 (protein)
chain: SSSSDEEELKELLEELRKLAEEGDEEKFLRLAMELLHLIAQLGDQEAFEELWRLIKEFAEKSSSS
B13: il10ra_site1_sap_23_mot_HHH_b1_05595_af2_000000085_0001_42_56_H_._HHH_b2_07888_af2_0001_0000200007_0000002_0_0001 (protein)
chain: SSSSEREEVLELIKRVFRLLLRGNQEEAERLLEEVERVAEENNDPELQRAVEILRQSVEANSSSS
B14: il10ra_site1_sap_17_mot_HHH_b1_05357_000000034_0001_23_39_H_._HHH_b2_02316_0001_0000400035_0000001_0_0001 (protein)
chain: SSSSDEEEEELEELIKQIEEAIKKNDRETALRLIIELIRLAFQARDPEALRAAWELAKKIESSSS
B15: il10ra_site1_sap_16_mot_HHH_b1_00999_000000080_0001_41_55_H_._HHH_b1_01870_0001_0000800024_0000001_0_0001 (protein)
chain: SSSSSSEEELEELIERLKEALEEGDEELIIELLLKLARLAVRLNDHEATRIIMEVAEKLRSSSSS
B16: il10ra_site1_sap_19_mot_HHH_b2_08144_af2_000000046_0001_38_52_H_._HHH_b2_04324_0001_0000300022_0000001_0_0001 (protein)
chain: SSSSTLEELTRAALRIAKQALEWGDPEAARLLLEALLQLLRNEGNEELVEEVEELLEEVRNSSSS
B17: il10ra_site1_sap_21_mot_HHH_b1_08325_000000134_0001_1_19_H_._HHH_b1_06728_0001_0000200010_0000002_0_0001 (protein)
chain: SSSSSSDVEEEVEELLEEAKHIEDPRKLTRLLQEAVRNAIQVGDPEVLREVWEVVHKLSSSSSSS
B18: il10ra_site1_sap_23_mot_ems_3hM_235_000000244_0001_46_64_H_._HHH_b2_04652_af2_0001_0000900062_0000001_0_0001 (protein)
chain: SSSSTRRRIYELSREAVELASEGNPEEAKEVLEEALELAEEAGNQVLLFVLRRVLELIEGSSSSS
B19: il10ra_site1_normal_mot_HHH_b2_08265_af2_000000206_0001_22_38_H_._HHH_b2_05887_0001_0000200025_0000002_0 (protein)
chain: SSSSSDEEEVEELTREIERLLEEGDLEEAARLIQELLRVAYENKDQEAIQLAWELAQLAKSSSSS
B20: il10ra_site1_sap_13_mot_HHH_b2_05686_000000041_0001_1_18_H_._HHH_b1_05792_0001_0000400018_0000002_0_0001 (protein)
chain: PERLEELKELLEKLNTPVARELLRLIEELEERGVPPNHILQRAVRYALRAGDEEVLRALWKVALK
B21: il10ra_site1_normal_mot_HHH_b2_00479_000000091_0001_1_12_H_._HHH_b2_05176_0001_0000200017_0000002_0 (protein)
chain: SSSSTEEFDELYRLARKALELRANGNPEEAEKVLEEAVELARELGDFATLFAIEHLLRILGSSSS
B22: il10ra_site1_normal_mot_HHH_b2_07569_000000265_0001_38_56_H_._HHH_b2_06565_0001_0000500047_0000002_0 (protein)
chain: SSSSSDETEEEVEELLEEAKHIEDPEELAEVLLEALQVALEEGDQELVQLVWEVIKRLFSSSSSS
B23: il10ra_site1_normal_mot_8756ee2cf497b5429c717dfc0c0bcfd6_0001_000000186_0001_1_13_H_._HHH_b1_04603_af2_0001_0000100008_0000001_1_af2pred_0001 (protein)
chain: SSSSTEEVQRLLRRVIELLNEGDKEEAEELLEEAKKLAEELGSEVLRAILEYLQELLERGSSSSS
B24: il10ra_site1_sap_21_mot_HHH_b1_07835_af2_000000063_0001_1_16_H_._HHH_eva_0501_0001_0000200017_0000001_0_0001 (protein)
chain: SSSSDEELQEALELSIKAFRAALRGDPEEAERLLERALELAERLGDERLAEQIRQLLEALGSSSS
B25: il10ra_site1_sap_20_mot_745ba417a8ead33aea5db1974d5d2f48_0001_1_af2_000000024_0001_16_30_H_._HHH_b2_04807_0001_0000300035_0000001_0_0001 (protein)
chain: SSSSSEEVYELIRRVIELLSEGNREEAEELLEQLRKLIEEEGDPVMEFILRLLERMLELTSSSSS
B26: il10ra_site1_normal_mot_HHH_b2_00943_af2_000000149_0001_1_17_H_._HHH_b1_02469_0001_0000100005_0000001_0 (protein)
chain: SSSSDEEVEQLLVEAMELLEEGNPEEALKVLEEALELAEELGDEHARFLVRQALKALRRFLSSSS
B27: il10ra_site1_normal_mot_HHH_b2_07145_000000158_0001_24_40_H_._HHH_b1_06553_af2_0001_0000100008_0000001_0 (protein)
chain: SSSSSEELFRAAREAIEHAAELARSGDPEEARRLLEEVLEELEENNNQAALWSVRHLLRLISSSS
B28: il10ra_site1_sap_15_mot_HHH_b2_03438_af2_000000049_0001_18_34_H_._HHH_b1_00102_0001_0000200018_0000001_0_0001 (protein)
chain: SSSSTELIQRAFELLELLKELNDEENLIELARVLTKVVAEGDPELEKELEEVIKEIEEQVNSSSS
B29: il10ra_site1_sap_24_mot_HHH_b2_07346_af2_000000031_0001_38_52_H_._HHH_b1_02819_af2_0001_0000500023_0000002_0_0001 (protein)
chain: SSSSDEAREEVEKLLEEAEKAEEEGDHEAVLRLLLRAVQLAFHGKDEELLREVWRLVHELSSSSS
B30: il10ra_site1_normal_mot_a6c796b944619e241e020fd597ddb6da_0001_af2_000000092_0001_15_31_H_._HHH_b2_01456_af2_0001_0000600036_0000001_0_af2pred_0001 (protein)
chain: SSSSSSTRVEVEVRALLWFAKYSKNEEAVELALELARELAEENNDEELKELVEKVAEELSSSSSS
B31: il10ra_site1_sap_15_mot_HHH_b2_00440_af2_000000075_0001_42_56_H_._HHH_b2_04674_0001_0000300032_0000001_0_0001 (protein)
chain: SSSSDTLEWSVRFALRVVEELAKLGDPEHARALLRALEHVLRQAGDEELLREVEELLEEISSSSS
B32: il10ra_site1_normal_mot_HHH_b2_04275_000000272_0001_20_36_H_._HHH_b1_07500_0001_0000100002_0000002_0_af2pred_0001 (protein)
chain: SSSSSEEDEEIVKLLREVAEVHREGDEERAEELLEEIERLIEEANNEIARAIVEFLKKILSSSSS
B33: il10ra_site1_normal_mot_e1dd4851c59bc1cdde016f988f6856bd_0001_1_000000200_0001_16_31_H_._HEEHE_1920_af2_0001_0000700008_0000001_0 (protein)
chain: DEVEMLEISLRYVAEQLNVPSVEVEVRNGEVHIEIEGTDQAARELSEMARFQARALGVDVEVEVE
B34: il10ra_site1_normal_mot_HHH_b2_03745_000000022_0001_1_20_H_._HHH_b1_02987_0001_0000100010_0000001_0 (protein)
chain: SSSSTEVFERVRELVERIAELIRNGNPEEAEELIEEIEQLAKEYNNPVVEAAARALKRAVSSSSS
B35: il10ra_site1_sap_22_mot_HHH_b2_02736_000000092_0001_22_38_H_._HHH_b1_06841_0001_0000100008_0000001_0_0001 (protein)
chain: SSSSDRKERVIELIMRVARLLIRGDREEAEELLEEIRELVEKLGDEALERALEILEQAIKASSSS
B36: il10ra_site1_normal_mot_HHH_b2_02337_000000026_0001_38_52_H_._HHH_b1_06864_0001_0000200014_0000001_0 (protein)
chain: SSSSDLEEEIEELIRELERLLEEGDEEKFAEVAQRVVQHIYELGDPELLKQVWEIVQRFASSSSS
B37: il10ra_site1_sap_11_mot_HHH_b2_00943_af2_000000149_0001_1_17_H_._HHH_b1_02974_af2_0001_0000600040_0000002_0_0001 (protein)
chain: SSSSSELEREIRELLEELEEAAERGDEELVAKLALEILRLIYRLGDAELLRQLWRLFREAFSSSS

Biological target: il10ra, Q13651
Test: yeast display titration

Apparent Kd, inactive:
B1 no binding seen
B2 no binding seen
B3 no binding seen
B4 no binding seen
B5 no binding seen
B6 no binding seen
B7 no binding seen
B8 no binding seen
B9 no binding seen
B10 no binding seen
B11 no binding seen
B12 no binding seen
B13 no binding seen
B14 no binding seen
B15 no binding seen
B16 no binding seen
B17 no binding seen
B18 no binding seen
B19 no binding seen
B20 no binding seen
B21 no binding seen
B22 no binding seen
B23 no binding seen
B24 no binding seen
B25 no binding seen
B26 no binding seen
B27 no binding seen
B28 no binding seen
B29 no binding seen
B30 no binding seen
B31 no binding seen
B32 no binding seen
B33 > 697 nM
B34 no binding seen
B35 no binding seen
B36 no binding seen
B37 no binding seen

Retrieved one by one from the list above:
Apparent Kd, inactive:
B14 no binding seen
B13 no binding seen
